This assay in a line: qHTS Assay for Lipid Storage Modulators in Drosophila S3 Cells.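 For cell number change: cells counted by Cell Tracker Red CMTPX staining in the red channel.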 The following applies: BODIPY lipid droplet fluorescence, 18-24 h; for cell number change: measured here: cell count max response, cells fed with added oleic acid. The essentials: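 Drosophila S3 cells loaded with oleic acid (400 uM, as added) and compounds at several concentrations; lipid droplets imaged by 488-nm laser-scanning cytometry, 500–530 nm intensity and object ratio to cell channel. Percent activity normalized to 20 uM Triacsin C.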
For orientation: Quantitative high-throughput screening tests each substance at several concentrations.

Setting [1] is: measured here: cell number channel AC50, cells fed with added oleic acid.
Setting [2] is: measured here: lipid fluorescence (Fed channel) AC50, cells fed with added oleic acid.

Some of the results follow. Shown are side measurements of this screen, not its main read-out; they come without a call. Compounds called inactive in the main read-out are mostly missing here. Potencies come from curve fits of mixed quality, noted in brackets.

For `COc1ccc(CN2CCn3ncc(C(=O)Nc4ccc(Cl)cc4Cl)c3C2=O)cc1`, the cell number change worked out at 18.5%. For orientation: AC50 means the concentration at which the activity in the assay is half-maximal. The low end stands for greater potency, the high end for weaker potency. As to `CCOC(=O)N1CCN(C(=O)CSc2nnc(Cc3cccn3C)n2CCc2ccccc2)CC1`, the cell number change amounted to 103%. Also, under setting [1], the half-maximal activity concentration (AC50) is 6.51 µM [falling, single point]. Also, the AC50 under setting [2] is 9.2 µM [rising, partial curve].

For the molecule `O=C(CSc1nc2ccc([N+](=O)[O-])cc2[nH]1)c1ccc(Cl)cc1`, the cell number change was determined as 17.5%. With `Cc1ccc(N(Cc2ccccc2)C(=O)c2ccc(F)cc2)cc1`, the cell number change is 35.1%. Moreover, under setting [1], the AC50 was 16.4 µM [rising, partial curve, poor fit].

On to `O=C(Nc1ccccc1OC(F)F)c1ccc(Br)o1`, for which the AC50 under setting [2] was 6.51 µM [falling, single point]. With `COc1ccc2nc(NC(=O)C3CCCN(S(=O)(=O)c4cccs4)C3)sc2c1` (configuration not stated), the cell number change was -80.5%. The AC50 under setting [1] is 18.4 µM [falling, single point]. With `CCOC(=O)Cc1nc2ccccc2o1`, the cell number change turned out to be 30.6%. Under setting [1], the half-maximal activity concentration (AC50) is 29.1 µM [rising, single point]. Moreover, the AC50 under setting [2] was 3.66 µM [rising, single point]. In the case of `O=C(Nc1ccccn1)c1ccc(Br)s1`, the cell number change came to 17.6%. For the molecule `COCC(C)n1c(COc2ccccc2F)nnc1SCC(=O)c1c(N)n(C)c(=O)n(C)c1=O` (configuration not stated), the cell number change was -73%. In addition, the AC50 under setting [1] was 29.1 µM [falling, single point]. Also, under setting [2], the AC50 is 29.1 µM [falling, partial curve]. In the case of `CC(C)(C)n1ncc2c(=O)n(CC(=O)OCc3ccccc3)cnc21`, the cell number change worked out at 25.6%. Regarding `CCCCNC(=O)c1cccnc1SCC(=O)Nc1ccccc1OC`, the cell number change was determined as 19.5%. For the same molecule, the AC50 under setting [2] is 0.517 µM [rising, full curve]. Consider `COc1ccc(N2CC(C(=O)Nc3nnc(SCC(=O)N4CCCC4)s3)CC2=O)cc1` (configuration not stated), for which the cell number change worked out at 22%.

For the molecule `COCCCNC(=O)C(=O)NCC(c1ccco1)N1CCN(c2ccc(OC)cc2)CC1` (configuration not stated), the cell number change was 12.8%. For the same molecule, the AC50 under setting [2] was 6.51 µM [falling, single point]. With `O=c1cc(CCl)nc2scc(-c3ccccc3)n12`, the cell number change worked out at 12.8%. For `O=C(NCc1ccncc1)c1nc(-c2cccs2)no1`, the cell number change is -21.9%. Moreover, the AC50 under setting [2] was 25.9 µM [falling, single point]. As for `Cc1ccc(C)c(C(=O)N2CCN(c3ncccn3)CC2)c1`, the cell number change turned out to be 12.5%.

Take `CCC(=O)c1ccc(OCC(=O)OCC(=O)NCC2CCCO2)cc1` (configuration not stated): the cell number change worked out at 30.5%. Further, the AC50 under setting [2] is 0.58 µM [rising, single point]. `COC(=O)c1ccc(/C=N/Nc2nc(-c3ccccc3)cs2)cc1`: the cell number change worked out at 19.6%. The AC50 under setting [2] is 0.206 µM [rising, full curve, poor fit].

As to `O=C(NCCCn1ccnc1)c1csc2ccccc12`, the cell number change is -1.33%. The AC50 under setting [2] is 16.4 µM [rising, single point].

Take `CCOC(=O)C1CCN(C(=O)C2CCN(S(=O)(=O)CC)CC2)CC1`: the cell number change was 5.95%. Under setting [2], the concentration at half-maximal activity (AC50) is 0.82 µM [falling, full curve].

Consider `O=C(COc1nsnc1N1CCOCC1)Nc1ccccc1Cl`, for which the cell number change was determined as 11.6%. Take `O=c1c2ccccc2cnn1Cc1ccc(Br)cc1F`: the cell number change was -14.5%. The concentration at half-maximal activity (AC50) under setting [2] was 7.08 µM [rising, partial curve]. For the molecule `O=C(COC(=O)CNC(=O)c1ccc(Cl)cc1Cl)Nc1cccc(S(=O)(=O)N2CCCC2)c1`, the cell number change is -15.9%. The AC50 under setting [2] was 0.92 µM [rising, partial curve]. Take `CC(C)C(=O)Nc1cccc(C(=O)Nc2cc([N+](=O)[O-])ccc2Cl)c1`: the cell number change came out at 1.03%. Moreover, the half-maximal activity concentration (AC50) under setting [2] is 0.00461 µM [rising, full curve, poor fit]. As for `COc1ccc(C)cc1S(=O)(=O)N1CCC2(CC1)OCCN2S(=O)(=O)c1ccccc1`, the cell number change turned out to be 3.81%. Besides, under setting [1], the AC50 was 1.3 µM [rising, partial curve, poor fit]. Moreover, the AC50 under setting [2] is 2.06 µM [rising, partial curve]. On to `CCC(C)C(=O)Nc1nc2ccc(OC)cc2s1` (configuration not stated), for which the cell number change amounted to 17.3%. Regarding `Cc1ccc(-c2cc(C(=O)Nc3cc(C)ccc3O)no2)cc1`, the cell number change is 36.5%. Take `COC(=O)c1ccc(C2C(C#N)=C(N)Oc3cc(N)ccc32)cc1` (configuration not stated): the cell number change came to 3.45%. Further, the concentration at half-maximal activity (AC50) under setting [2] was 32.6 µM [rising, single point]. As for `Cc1cccc(NC(=O)C2CCCN(S(=O)(=O)c3ccc(-n4cnnn4)cc3)C2)c1` (configuration not stated), the cell number change was -13.3%. For the same molecule, the half-maximal activity concentration (AC50) under setting [2] is 6.51 µM [falling, single point].

`CCc1nc(NCCN2CCOCC2)c2oc3ccccc3c2n1`: the cell number change worked out at 7.17%. The AC50 under setting [2] is 0.00411 µM [rising, full curve, poor fit]. Turning to `COCc1cc(C)nc(SCC(=O)Nc2cc3c(cc2C#N)OCO3)c1C#N`, the cell number change was -14%. Moreover, the AC50 under setting [2] was 0.231 µM [rising, full curve, poor fit]. As to `Cc1cccc(OCC(=O)NCc2ccc(F)cc2)c1`, the cell number change worked out at 7.66%. In the case of `O=C(CC1C(=O)NCCN1CC1CCCCC1)NCc1ccc(F)cc1` (configuration not stated), the cell number change came out at 25.3%. Moreover, the AC50 under setting [2] is 25.9 µM [rising, partial curve].

Regarding `Cc1cnc(NC(=O)CN(C)S(=O)(=O)c2ccc(Cl)cc2)s1`, the cell number change was found to be 82.6%. The AC50 under setting [1] is 29.1 µM [rising, single point]. On to `CCCNC(=O)c1cc2c3ccccc3n(C)c2s1`, for which the AC50 under setting [2] was 0.58 µM [falling, single point].

As for `Cc1ccc(S(=O)(=O)N/N=C\c2cc([N+](=O)[O-])ccc2Cl)cc1`, the AC50 under setting [2] was 4.61 µM [falling, full curve]. Regarding `O=C(CN1CCN(c2ncc(C(F)(F)F)cc2Cl)CC1)N1CCN(c2ncc(C(F)(F)F)cc2Cl)CC1`, the cell number change came out at 135%. Besides, the AC50 under setting [1] is 16.4 µM [rising, partial curve]. In addition, under setting [2], the AC50 was 4.11 µM [rising, single point]. Turning to `COc1ccc(CNc2nc3nc(-c4ccccc4)cc(=O)n3[nH]2)cc1OC`, the cell number change is -27.3%. Also, under setting [1], the AC50 was 0.206 µM [falling, full curve]. Turning to `COC(=O)c1ccc(COc2ccccc2/C=C(\C#N)C(=O)Nc2ccc(C)cc2C)cc1`, the cell number change was -39.2%. The AC50 under setting [1] is 0.651 µM [falling, full curve]. Besides, under setting [2], the AC50 was 29.1 µM [falling, single point]. Turning to `CCN(CC)CCCNC(=O)Cn1nc([N+](=O)[O-])c(Cl)c1C`, the cell number change was -8.16%. For the same molecule, the AC50 under setting [2] is 0.116 µM [falling, full curve, poor fit]. For the molecule `O=C(Cn1nnc2ccccc2c1=O)NC1CCCCC1`, the cell number change was -6.41%. With `N#C/C(=C\c1cccc(NC(=O)c2ccccc2Cl)c1)C(=O)NCCc1ccccc1`, the cell number change is 13.6%. Consider `CSCCC(NC(=O)c1ccccc1Cl)C(=O)OCC(=O)N1CCCC1=O` (configuration not stated), for which the cell number change was -50%. Under setting [1], the AC50 was 0.92 µM [falling, full curve]. As to `Cc1cccc(N2CCN(c3nnnn3-c3ccccc3)CC2C)c1` (configuration not stated), the cell number change was 31%. The AC50 under setting [1] is 23.1 µM [rising, single point]. Further, the AC50 under setting [2] was 29.1 µM [rising, single point]. As to `O=C(Cn1cnc2cc([N+](=O)[O-])ccc2c1=O)NCCc1ccc(Cl)cc1`, the cell number change is -3.86%.

`COc1ccc(CCn2c(SCC(=O)Nc3cc(C)on3)nc3ccsc3c2=O)cc1OC`: the cell number change is 49.4%. Also, under setting [1], the concentration at half-maximal activity (AC50) is 0.291 µM [rising, full curve]. For the same molecule, the AC50 under setting [2] is 0.184 µM [rising, full curve, poor fit].

For the molecule `CCOC(=O)c1c(-c2ccccc2)oc2ccc(OCC(O)CNCCN(C)C)cc12` (configuration not stated), the cell number change is -49.3%. Under setting [1], the AC50 is 20.6 µM [falling, single point]. Under setting [2], the half-maximal activity concentration (AC50) is 29.1 µM [falling, single point]. On to `CN(C)S(=O)(=O)c1ccc(/C(O)=C2/C(=O)C(=O)N(Cc3cccnc3)C2c2ccco2)cc1` (configuration not stated), for which the cell number change is -23.6%. Besides, under setting [2], the AC50 is 0.082 µM [falling, full curve, poor fit].

Take `Cc1ccc(S(=O)(=O)N(C)c2cc(S(=O)(=O)Nc3ccncc3)c(C)cc2C)cc1`: the cell number change is 9.76%. For the same molecule, the AC50 under setting [2] is 5.8 µM [rising, full curve, poor fit]. For the molecule `CC1=C(C(=O)Nc2cccc(C(=O)NC(C)C)c2)SCCO1`, the cell number change worked out at 151%. Besides, the AC50 under setting [1] is 0.116 µM [rising, full curve, poor fit]. In addition, the AC50 under setting [2] is 0.146 µM [rising, full curve, poor fit]. Turning to `NC(=S)N=Nc1c(O)n(CCCl)c2ccc(Cl)cc12`, the cell number change is 9.54%. On to `CCOC(=O)N1CCN(C(=O)C(C)N(c2ccc(Oc3ccccc3)cc2)S(C)(=O)=O)CC1` (configuration not stated), for which the AC50 is 2.31 µM [rising, partial curve] under setting [1] and 2.91 µM [rising, partial curve] under setting [2]. Turning to `O=c1[nH]c(CN2CCN(C/C=C/c3ccccc3)CC2)nc2ccccc12`, the cell number change amounted to 133%. Also, the AC50 under setting [1] is 14.6 µM [rising, partial curve]. Also, the AC50 under setting [2] is 6.51 µM [rising, single point]. As for `Cc1cc(N2C(=O)C(O)=C(C(=O)c3cccs3)C2c2cccc(Br)c2)no1` (configuration not stated), the cell number change was -24.8%. For the same molecule, the AC50 under setting [2] is 29.1 µM [falling, single point].

For the molecule `O=C(CSc1ccccc1)NNC(=O)c1ccccc1O`, the cell number change stood at 30.8%. The concentration at half-maximal activity (AC50) under setting [1] is 14.6 µM [rising, partial curve, poor fit]. In the case of `Cc1nc(S(=O)(=O)c2ccc(Cl)cc2)c(NCc2ccccc2)o1`, under setting [1], the AC50 is 0.184 µM [rising, full curve, poor fit]. Turning to `CC(C)C(=O)Nc1cccc(C(=O)OCC(=O)c2ccc(Cl)cc2Cl)c1`, the cell number change was found to be 40.7%. Under setting [1], the AC50 was 32.6 µM [rising, single point]. The half-maximal activity concentration (AC50) under setting [2] was 29.1 µM [rising, single point]. In the case of `Nc1scn[n+]1Cc1cccc2cccnc12`, the cell number change stood at 7.18%. Besides, the AC50 under setting [2] is 14.6 µM [rising, partial curve]. Regarding `Cc1ccc(C)c(NC(=O)c2nc(Cl)ccc2Cl)c1`, the cell number change is 10%. Moreover, the AC50 under setting [2] is 0.326 µM [rising, partial curve, poor fit]. As to `CCc1c(C)c2nncn2[nH]c1=O`, the cell number change is -27.1%. The AC50 under setting [1] was 0.259 µM [falling, full curve]. Take `CC(=O)c1ccc(NC(=O)CN2C(=O)/C(=C/C(C)=C/c3ccccc3)SC2=S)cc1`: the cell number change is 15.6%. Moreover, the AC50 under setting [2] was 5.8 µM [falling, single point].

As to `COCCn1cnc2c(c1=O)c1nc3ccccc3nc1n2/N=C/c1ccco1`, the cell number change is -16.6%. The AC50 under setting [2] is 8.2 µM [falling, partial curve].
